No constants are given. Whether binding was seen depends on the method and setting. Binding calls can cover weak binding; strength is not graded here.
Experiments:
[1] = biological target: recombinant Bt-CBP21 (chitin-binding protein of Bacillus thuringiensis HD-1), 6X His (Bacillus thuringiensis HD-1) (UniProt E5L4Y0); assay: pull-down; both purified
[2] = biological target: recombinant Bt-CBP21 (chitin-binding protein of Bacillus thuringiensis HD-1), 6X His (Bacillus thuringiensis HD-1) (UniProt E5L4Y0); assay: circular dichroism; 150 µg of each purified protein, mixture 1:1, 10 mM sodium-phosphate pH 7.0, 24°C; spectrum of the mixture against the single spectra; both purified

Amino acid sequences for entries named in this document (tags omitted). A change or cut given only in a name is not applied to a line headed by its entry.
UniProt E5L4Y0: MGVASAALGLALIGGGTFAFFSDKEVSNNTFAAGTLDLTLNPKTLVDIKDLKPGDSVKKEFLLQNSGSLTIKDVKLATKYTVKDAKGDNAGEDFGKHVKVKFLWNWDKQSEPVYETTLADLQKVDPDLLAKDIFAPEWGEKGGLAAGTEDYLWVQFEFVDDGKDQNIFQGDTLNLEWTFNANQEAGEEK
UniProt P05068: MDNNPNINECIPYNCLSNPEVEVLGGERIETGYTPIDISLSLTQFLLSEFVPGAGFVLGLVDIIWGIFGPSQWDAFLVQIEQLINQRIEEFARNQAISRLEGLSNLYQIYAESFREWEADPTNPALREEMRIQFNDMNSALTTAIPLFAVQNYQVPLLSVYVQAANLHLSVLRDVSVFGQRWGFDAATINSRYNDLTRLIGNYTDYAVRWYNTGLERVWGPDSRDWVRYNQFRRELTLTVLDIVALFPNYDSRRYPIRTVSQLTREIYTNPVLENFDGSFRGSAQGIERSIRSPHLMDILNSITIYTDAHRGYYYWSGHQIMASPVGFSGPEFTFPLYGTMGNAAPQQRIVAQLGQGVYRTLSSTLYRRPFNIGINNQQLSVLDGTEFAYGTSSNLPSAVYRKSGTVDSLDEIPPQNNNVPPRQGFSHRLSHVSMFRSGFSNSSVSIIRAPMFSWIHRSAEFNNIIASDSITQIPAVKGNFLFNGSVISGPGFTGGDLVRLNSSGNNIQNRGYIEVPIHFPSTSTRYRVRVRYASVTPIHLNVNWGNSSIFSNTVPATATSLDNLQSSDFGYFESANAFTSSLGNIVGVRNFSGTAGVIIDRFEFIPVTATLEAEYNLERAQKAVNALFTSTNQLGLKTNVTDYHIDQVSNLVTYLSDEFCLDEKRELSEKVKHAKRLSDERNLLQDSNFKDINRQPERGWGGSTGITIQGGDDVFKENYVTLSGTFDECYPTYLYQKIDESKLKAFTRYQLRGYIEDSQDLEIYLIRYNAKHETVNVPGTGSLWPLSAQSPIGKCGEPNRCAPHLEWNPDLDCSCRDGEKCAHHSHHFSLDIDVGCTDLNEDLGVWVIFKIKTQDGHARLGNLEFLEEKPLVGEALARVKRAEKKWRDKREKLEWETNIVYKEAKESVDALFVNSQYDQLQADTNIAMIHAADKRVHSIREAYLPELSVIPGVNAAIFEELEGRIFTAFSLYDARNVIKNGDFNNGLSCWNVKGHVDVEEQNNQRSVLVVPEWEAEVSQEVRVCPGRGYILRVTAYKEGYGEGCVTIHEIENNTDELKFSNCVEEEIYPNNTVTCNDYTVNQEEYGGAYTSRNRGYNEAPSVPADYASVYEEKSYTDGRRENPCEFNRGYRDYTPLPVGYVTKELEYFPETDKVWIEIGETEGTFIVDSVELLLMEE

Q: How did the binding [1] turn out when “Cry1Ac protoxin (130 kDa) (from UniProt P05068 1-1178)” was run?
A: Its binding is “binds”.

Q: What about the binding [2] of the same substance?
A: Its binding is “binds”.
